{"source": "PubChem BioAssay AID1259308 (NCATS, 2017)", "purpose": "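Genes whose loss raises luciferase production in HEK293 cells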 (primary screen)", "system": "human HEK293 embryonic kidney cells stably expressing firefly luciferase (HEK-CMV-Luc2-Hygro)", "reagent": "single siRNA against human genes, 0.8 pmol siRNA per well", "duration": "72 h", "measurement": "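Reporter luminescence and viable-cell signal on separate replicate plates, given as percent of non-targeting control and median/MAD z-scores, plus per-cell luciferase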", "scale": "total luciferase, z-score: higher = more reporter protein produced", "hit rule": "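An siRNA counts as active if its total luciferase robust z-score exceeds 3; genes with two or more such siRNAs out of three were retested with fresh siRNAs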", "meaning of the calls": "active = raised luciferase; inactive = no rise", "note": "The whole screen tested about 59,000 reagents; below is a random part of them. About 1,510 of them (2.6%) count as active. 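Calls use total luciferase alone and ignore viability, so some active siRNAs may act by altering cell number.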 Not all columns of the deposit are shown. No sequences are given here."}
{"target gene": "GPNMB", "PubChem SID": "SID160728464", "total luciferase, z-score": -0.52, "call": "inactive"}
{"target gene": "GPNMB", "PubChem SID": "SID160728465", "total luciferase, z-score": 0.322, "call": "inactive"}
{"target gene": "GPNMB", "PubChem SID": "SID160728466", "total luciferase, z-score": 0.301, "call": "inactive"}
{"target gene": "TRAPPC2L", "PubChem SID": "SID160741222", "total luciferase, z-score": -0.691, "call": "inactive"}
{"target gene": "TRAPPC2L", "PubChem SID": "SID160741223", "total luciferase, z-score": -2.06, "call": "inactive"}
{"target gene": "TRAPPC2L", "PubChem SID": "SID160741224", "total luciferase, z-score": -0.645, "call": "inactive"}
{"target gene": "RPSAP19", "PubChem SID": "SID160773416", "total luciferase, z-score": -0.0408, "call": "inactive"}
{"target gene": "RPSAP19", "PubChem SID": "SID160773417", "total luciferase, z-score": -3.19, "call": "inactive"}
{"target gene": "RPSAP19", "PubChem SID": "SID160773418", "total luciferase, z-score": -2.25, "call": "inactive"}
{"target gene": "FOXD4L1", "PubChem SID": "SID160760841", "total luciferase, z-score": -0.5, "call": "inactive"}
{"target gene": "FOXD4L1", "PubChem SID": "SID160760842", "total luciferase, z-score": -0.528, "call": "inactive"}
{"target gene": "FOXD4L1", "PubChem SID": "SID160760843", "total luciferase, z-score": 0.849, "call": "inactive"}
{"target gene": "MLLT10", "PubChem SID": "SID160719564", "total luciferase, z-score": 1.34, "call": "inactive"}
{"target gene": "MLLT10", "PubChem SID": "SID160719565", "total luciferase, z-score": -0.00491, "call": "inactive"}
{"target gene": "MLLT10", "PubChem SID": "SID160719566", "total luciferase, z-score": 0.52, "call": "inactive"}
{"target gene": "GPANK1", "PubChem SID": "SID160719475", "total luciferase, z-score": 0.371, "call": "inactive"}
{"target gene": "GPANK1", "PubChem SID": "SID160719477", "total luciferase, z-score": 0.602, "call": "inactive"}
{"target gene": "GPANK1", "PubChem SID": "SID160719478", "total luciferase, z-score": 0.443, "call": "inactive"}
{"target gene": "RPUSD4", "PubChem SID": "SID160752842", "total luciferase, z-score": 1.66, "call": "inactive"}
{"target gene": "RPUSD4", "PubChem SID": "SID160752843", "total luciferase, z-score": -0.376, "call": "inactive"}
{"target gene": "RPUSD4", "PubChem SID": "SID160752844", "total luciferase, z-score": -0.0869, "call": "inactive"}
